Reference: US6583179B2, “Substituted aminoalkylamide derivatives as antagonists of follicle stimulating hormone” (Ortho-McNeil Pharmaceutical, Inc., priority 1999, dated 2003)

Sequences of proteins named here, by UniProt entry; tags and fusion partners are left off. Residues count along the entry.
UniProt P23945, 18-695 limits assumed: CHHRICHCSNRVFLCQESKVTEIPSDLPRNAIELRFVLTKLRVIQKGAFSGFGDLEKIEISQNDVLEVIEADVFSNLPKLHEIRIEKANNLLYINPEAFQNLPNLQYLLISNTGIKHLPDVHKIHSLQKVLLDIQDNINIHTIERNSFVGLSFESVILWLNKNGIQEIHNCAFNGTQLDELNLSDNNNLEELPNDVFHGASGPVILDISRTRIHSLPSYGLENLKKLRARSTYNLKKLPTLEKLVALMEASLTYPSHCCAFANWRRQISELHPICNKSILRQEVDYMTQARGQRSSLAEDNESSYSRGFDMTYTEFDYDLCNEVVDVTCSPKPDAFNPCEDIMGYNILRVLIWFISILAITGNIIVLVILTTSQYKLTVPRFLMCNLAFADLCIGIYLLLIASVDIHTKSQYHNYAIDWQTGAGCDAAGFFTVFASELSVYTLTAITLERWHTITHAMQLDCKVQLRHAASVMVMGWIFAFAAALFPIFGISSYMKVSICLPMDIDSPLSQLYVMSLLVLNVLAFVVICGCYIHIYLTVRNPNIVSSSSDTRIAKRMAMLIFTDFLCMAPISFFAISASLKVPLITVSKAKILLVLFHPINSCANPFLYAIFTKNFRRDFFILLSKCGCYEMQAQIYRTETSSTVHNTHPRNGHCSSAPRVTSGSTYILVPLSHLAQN

Columns and labels:
human FSH receptor = human FSH receptor (Homo sapiens, UniProt P23945); assay: hFSHR CHO cAMP assay (rhFSHR-cLUC cells, FSH-stimulated cAMP, radioimmunoassay); conditions: read-out: EC50 hFSHR CHO cAMP; inhibition of cAMP produced by EC70 dose of FSH (4.85 nM); maximum concentration 50 μM
Source text: Minimum Essential Medium-Alpha (MEM-alpha), fetal bovine serum (FBS), penicillin, streptomycin, geneticin, trypsin-EDTA, Hanks' Balanced Salt Solution (no Calcium chloride, Magnesium chloride, Magnesium sulfate, or phenol red; Ca-Mg free HBSS) were purchased from Gibco BRL (Gaithersburg, Md.). The cells used for the FSH bioassay (rhFSHR-cLUC) were Chinese Hamster Ovary cells (K-1; ATCC) stably transformed with human FSH receptor (pSVK-FSHr) and a cAMP luciferase reporter gene (responsive CGα-180LUC). Follicle Stimulating Hormone (Metrodin; Fertinex) was purchased from Serono, Ltd. (Norwell, Mass.).
The rhFSHR-cLUC cell cultures were maintained in MEM-Alpha supplemented with 10% heat-inactivated FBS (HIFBS), 100 U/ml penicillin, 100 μg/mL streptomycin, and included 0.1 g/L geneticin for stable cell selection.
Forty-eight hours after the cells were plated in sterile 96-well culture plates (Corning, Corning, N.Y.) the spent media was removed and 50 μl assay media (modified growth media with 2% HIFBS) containing 2 mM IBMX (3-isobutyl-1-methyl-xanthine) was added to the cells. Compounds (25 μl) in the appropriate concentration were added followed 5 minutes later by an EC70 dose of FSH (25 μl; 160 ng/ml; 4.85 nM). After 10 minutes @ 22.5° C. (room temperature) the reaction was terminated by addition of 25 μL 0.5 N hydrochloric acid to each well. The amount of cAMP produced was measured by radioimmunoassay in a FlashPlate (DuPont, Boston, Mass.). To each flash plate 60 μL flash plate buffer was added followed by 40 μL acidified cell sample or cAMP standard, followed with the addition of 100 μl ^125l-cAMP trace. The FlashPlates were sealed, incubated overnight @ room temperature, and counted in a Packard TopCount (Packard Instrument Co., Meriden, Conn.). The cAMP radioimmunoassay results were calculated using DPM conversion and log-logit transformation of % binding (Excel program).
(§1) Test compounds were solubilized in 30% dimethyl sulfoxide (DMSO) at a concentration of 10 mM before diluting to appropriate concentrations in assay medium. The final DMSO concentration in the treated cells and in the control cells was 0.75%.
For individual experiments, a set of samples were tested including a vehicle control (assay buffer), a reference compound (hFSH) at a range of concentrations designed to elicit a minimal to maximal response, and several concentrations of test compounds together with an EC70 concentration of standard (hFSH challenge). Each compound was performed in duplicates for the primary evaluation and quadruplicates for the dose-ranging experiments. The cAMP radioimmunoassay raw data (pmol) were calculated to provide average pmol cAMP produced/ml and the percent inhibition was calculated as shown below.
% Inh=[1−(Avg.pmoltest compound+standard)/(Avg.pmolstandard)]×100
EC50 values were calculated from an analysis of the concentration-inhibition data using a linear analysis of the data transformed to a log-logit format.

Rat Granulosa Cell = assay: Rat granulosa cell FSH-stimulated cAMP production; conditions: read-out: Rat Granulosa Cell EC50 cAMP; inhibition of cAMP produced by EC70 dose of FSH (1.4 nM); maximum concentration 50 μM
Description: Insulin, diethylstilbesterol, androstenedione, forskolin and DMSO were purchased from Sigma (St. Louis, Mo.). Fungizone, penicillin/streptomycin, charcoal-treated heat inactivated fetal bovine serum (CT-HI-FBS) and Dulbecco's Modified Eagle Medium:Hams F12 medium containing 15 mM Hepes and L-glutamine (DMEM:F12), were purchased from GIBCO BRL (Grand Island, N.Y.).
Ovine FSH (NIADDK-oFSH-17; FSH potency=20 NIH-FSH-S1 U/mg; LH contamination=0.04 times NIH-LH-S1) was received from Ogden Bioservices Corporation, Rockville, Md. Human FSH (Fertinex), was purchased from Serono Pharmaceutical (Framingham, Mass.). Human chorionic gonadotropin (hCG) was purchased from Sigma (St Louis, Mo.).
Immature intact female rats (Wistar-derived strain; 21-23 days old) were implanted with a single pellet (Innovative Research of America, Sarasota, Fla.) containing 2.5 mg diethylstilbesterol (DES) for 3 days. On the third day, the animals were sacrificed, the ovaries were removed, and the granulosa cells were isolated essentially as described in Haynes-Johnson et al., Biol. Reprod., 61 (1), 147-153, (1999). Granulosa cells were plated at a density of 300,000 cells per ml with 0.2 ml added to each well of 96 well culture dishes (Corning, N.Y.). Cultures were incubated at 37° C. in a humidified incubator (95% air, 5% CO2) overnight (18 hours).
Androstenedione (100,000X) was prepared by dissolving the steroid in 100% ethanol, and was subsequently diluted to a final concentration of 10^−7M containing 0.1% ethanol in assay media. The assay media was serum-free, DES-free, insulin-free media, prepared by adding 5 mL pen-strep,1.5 mL fungizone and 5 μL androstenedione to 493.5 mL DMEM F-12 media.
as §1
Test plates containing the granulosa cells were preincubated for 18 hours at 37° C. with 95% air, 5% CO2, 100% humidity. The spent media was removed and 50 μl assay media (DMEM:F12) containing 2 mM IBMX (3-isobutyl-1-methyl-xanthine) was added to the cells. Compounds (25 μl) in the appropriate concentration were added followed 5 minutes later by an EC70 dose of FSH (25 μl; 50 ng/ml; 1.4 nM). After 30 minutes @ 22.5° C. (room temperature) the reaction was terminated by addition of 25 μL 0.5 N hydrochloric acid to each well. The amount of cAMP produced was measured by radioimmunoassay in a FlashPlate (DuPont, Boston, Mass.). To each flash plate 60 μL flash plate buffer was added followed by 40 μL acidified cell sample or cAMP standard, followed with the addition of 100 μl ^125l-cAMP trace. The FlashPlates were sealed, incubated overnight @ room temperature, and counted in a Packard TopCount (Packard Instrument Co., Meriden, Conn.). The cAMP radioimmunoassay results were calculated using DPM conversion and log-logit transformation of % binding (Excel program).

Row | SMILES | EC50 (human FSH receptor) | EC50 (Rat Granulosa Cell)
1 | COc1ccc(S(=O)(=O)N(CC(=O)NCc2ccc(CN)cc2)C[C@H](C)c2ccccc2)cc1 | 1.27 µM | 
2 | COc1ccccc1CN(CC(=O)N[C@H]1CC[C@H](N)CC1)S(=O)(=O)c1ccc(-c2ccc(C)cc2)cc1 (relative stereo) | 3.06 µM | 0.23 µM
3 | COc1ccccc1CN(CC(=O)N[C@H]1CC[C@H](N)CC1)S(=O)(=O)c1ccc(-c2cccc(OC)c2OC)cc1 (relative stereo) | 12.9 µM | 0.57 µM
4 | COc1ccccc1CCN(CC(=O)N[C@H]1CC[C@H](N)CC1)S(=O)(=O)c1ccc(-c2ccc(C)cc2)cc1 (relative stereo) | 4.99 µM | 0.32 µM
5 | COc1ccccc1CN(CC(=O)N[C@H]1CC[C@H](N)CC1)S(=O)(=O)c1ccc(-c2cccc3ccccc23)cc1 (relative stereo) | 7.06 µM | 25.2 µM
6 | COc1ccccc1CN(CC(=O)N[C@H]1CC[C@H](N)CC1)S(=O)(=O)c1ccc(-c2ccccc2)cc1 (relative stereo) | 12.3 µM | 2.64 µM
7 | COc1ccccc1CCN(CC(=O)NCc1cccc(CN)c1)S(=O)(=O)c1ccc(-c2ccccc2Cl)cc1 | 18.2 µM | 
8 | COc1ccccc1CN(CC(=O)N[C@H]1CC[C@H](N)CC1)S(=O)(=O)c1ccc(-c2ccc(Cl)cc2)cc1 (relative stereo) | 7.4 µM | 0.19 µM
9 | COc1ccccc1CN(CC(=O)N[C@H]1CC[C@H](N)CC1)S(=O)(=O)c1ccc(-c2c(C)noc2C)cc1 (relative stereo) | 12.2 µM | 0.14 µM
10 | COc1ccccc1CCN(CC(=O)N[C@H]1CC[C@H](N)CC1)S(=O)(=O)c1ccc(-c2ccccc2Cl)cc1 (relative stereo) | 3.98 µM | 0.17 µM
11 | COc1ccccc1CCN(CC(=O)N[C@H]1CC[C@H](N)CC1)S(=O)(=O)c1ccc(-c2cccc(OC)c2OC)cc1 (relative stereo) | 6.04 µM | 0.43 µM
12 | C[C@@H](CN(CC(=O)NCc1cccc(CN)c1)S(=O)(=O)c1ccc(-c2cccc(F)c2)cc1)c1ccccc1 | 0.26 µM | 
13 | COc1ccccc1CCN(CC(=O)N[C@H]1CC[C@H](N)CC1)S(=O)(=O)c1ccc(-c2ccc(F)cc2)cc1 (relative stereo) | 4.31 µM | 0.55 µM
14 | COc1ccc(-c2ccc(S(=O)(=O)N(CC(=O)N[C@H]3CC[C@H](N)CC3)Cc3ccccc3OC)cc2)cc1 (relative stereo) | 7.83 µM | 1.6 µM
15 | COc1ccccc1CN(CC(=O)N[C@H]1CC[C@H](N)CC1)S(=O)(=O)c1ccc(-c2ccc(F)cc2)cc1 (relative stereo) | 6.86 µM | 0.44 µM
16 | COc1ccccc1CCN(CC(=O)N[C@H]1CC[C@H](N)CC1)S(=O)(=O)c1ccc(-c2ccsc2)cc1 (relative stereo) | 5.98 µM | 0.32 µM

Row | SMILES | EC50 (human FSH receptor) | EC50 (Rat Granulosa Cell)
17 | NCc1ccc(CNC(=O)CN(CCc2cccc(C(F)(F)F)c2)S(=O)(=O)c2ccc(-c3ccccc3)cc2)cc1 | 0.36 µM | 
18 | COc1ccccc1CN(CC(=O)N[C@H]1CC[C@H](N)CC1)S(=O)(=O)c1ccc(-c2cccs2)cc1 (relative stereo) | ≥ 50 µM | 7.66 µM
19 | COc1cccc(-c2ccc(S(=O)(=O)N(CC(=O)N[C@H]3CC[C@H](N)CC3)Cc3ccccc3OC)cc2)c1 (relative stereo) | ≥ 50 µM | 3.08 µM
20 | COc1ccccc1CN(CC(=O)N[C@H]1CC[C@H](N)CC1)S(=O)(=O)c1ccc(-c2ccccc2OC)cc1 (relative stereo) | 10.2 µM | 0.94 µM
21 | COc1ccccc1CN(CC(=O)N[C@H]1CC[C@H](N)CC1)S(=O)(=O)c1ccc(-c2ccc(N)cc2)cc1 (relative stereo) | 15.2 µM | 0.17 µM
22 | COc1ccccc1CN(CC(=O)N[C@H]1CC[C@H](N)CC1)S(=O)(=O)c1ccc(-c2ccsc2)cc1 (relative stereo) | 5.09 µM | 0.2 µM
23 | COc1ccccc1CN(CC(=O)N[C@H]1CC[C@H](N)CC1)S(=O)(=O)c1ccc(-c2cccnc2)cc1 (relative stereo) | 4.5 µM | 0.12 µM
24 | Cc1ccccc1CCN(CC(=O)NCc1ccc(CN)cc1)S(=O)(=O)c1ccc(-c2ccccc2Cl)cc1 | 0.21 µM | 
25 | COc1ccccc1CN(CC(=O)N[C@H]1CC[C@H](N)CC1)S(=O)(=O)c1ccc(-c2ccc(C#N)cc2)cc1 (relative stereo) | ≥ 50 µM | 0.9 µM
26 | COc1ccccc1CCN(CC(=O)N[C@H]1CC[C@H](N)CC1)S(=O)(=O)c1ccc(-c2cccc3ccccc23)cc1 (relative stereo) | 4.89 µM | 25.1 µM
27 | COC(CN(CC(=O)NCCCCCCN)S(=O)(=O)c1ccc(-c2ccccc2Cl)cc1)c1ccccc1 (stereo not drawn) | 0.13 µM | 
28 | COc1ccccc1CCN(CC(=O)N[C@H]1CC[C@H](N)CC1)S(=O)(=O)c1ccc(-c2ccccc2OC)cc1 (relative stereo) | 8.23 µM | 3.09 µM
29 | COc1ccccc1CN(CC(=O)N[C@H]1CC[C@H](N)CC1)S(=O)(=O)c1ccc(-c2ccncc2)cc1 (relative stereo) | 13.2 µM | 0.4 µM
30 | COc1ccccc1CN(CC(=O)N[C@H]1CC[C@H](N)CC1)S(=O)(=O)c1ccc(-c2ccccc2Cl)cc1 (relative stereo) | 5.09 µM | 0.12 µM
31 | COc1ccc(-c2ccc(S(=O)(=O)N(CCc3ccccc3OC)CC(=O)N[C@H]3CC[C@H](N)CC3)cc2)cc1 (relative stereo) | 3.68 µM | 0.59 µM
32 | COc1ccccc1CCN(CC(=O)NCc1ccc(CN)cc1)S(=O)(=O)c1cccc(-c2ccc(C#N)cc2)c1 [262] | 2.46 µM | 

Structures were worked out from names or drawings and are uncertain.
